According to PMC8429728, “TNK1 is a ubiquitin-binding and 14-3-3-regulated kinase that can be targeted to block tumor growth” (Nature Communications, 2021):
Results are given in words; binding and its absence hold for the method and conditions named. Binding seen in cells or lysates may run through a third protein. These calls come from enrichment with a bait or labelling near it, and not all partners need be listed. Where a sequence is shown, tags or fusion partners need not be part of it.

Sequences of proteins named here, by UniProt entry; tags and fusion partners are left off.
UniProt P31946: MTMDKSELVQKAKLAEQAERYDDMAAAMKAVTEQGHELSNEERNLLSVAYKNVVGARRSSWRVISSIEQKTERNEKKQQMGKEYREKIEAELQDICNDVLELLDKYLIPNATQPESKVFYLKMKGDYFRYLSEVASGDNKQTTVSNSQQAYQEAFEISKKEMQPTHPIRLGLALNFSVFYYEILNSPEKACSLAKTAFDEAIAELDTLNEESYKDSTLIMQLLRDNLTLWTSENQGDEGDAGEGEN
UniProt P62258: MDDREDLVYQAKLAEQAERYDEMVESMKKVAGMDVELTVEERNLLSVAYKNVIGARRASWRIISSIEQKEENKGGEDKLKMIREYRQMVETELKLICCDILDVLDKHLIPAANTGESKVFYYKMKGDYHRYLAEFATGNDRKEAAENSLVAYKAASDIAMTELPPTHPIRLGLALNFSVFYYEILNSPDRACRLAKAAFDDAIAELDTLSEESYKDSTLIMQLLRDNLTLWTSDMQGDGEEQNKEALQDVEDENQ

Assays:
[1] = biological target: T1, TNK1-BirA-HA (human) (UniProt Q13470); test: proximity labelling; BioID: TNK1-BirA-HA in HEK-293T, 50 nM biotin for 10 h, lysis in RIPA without SDS, streptavidin agarose, LC-MS/MS
T1 sequence: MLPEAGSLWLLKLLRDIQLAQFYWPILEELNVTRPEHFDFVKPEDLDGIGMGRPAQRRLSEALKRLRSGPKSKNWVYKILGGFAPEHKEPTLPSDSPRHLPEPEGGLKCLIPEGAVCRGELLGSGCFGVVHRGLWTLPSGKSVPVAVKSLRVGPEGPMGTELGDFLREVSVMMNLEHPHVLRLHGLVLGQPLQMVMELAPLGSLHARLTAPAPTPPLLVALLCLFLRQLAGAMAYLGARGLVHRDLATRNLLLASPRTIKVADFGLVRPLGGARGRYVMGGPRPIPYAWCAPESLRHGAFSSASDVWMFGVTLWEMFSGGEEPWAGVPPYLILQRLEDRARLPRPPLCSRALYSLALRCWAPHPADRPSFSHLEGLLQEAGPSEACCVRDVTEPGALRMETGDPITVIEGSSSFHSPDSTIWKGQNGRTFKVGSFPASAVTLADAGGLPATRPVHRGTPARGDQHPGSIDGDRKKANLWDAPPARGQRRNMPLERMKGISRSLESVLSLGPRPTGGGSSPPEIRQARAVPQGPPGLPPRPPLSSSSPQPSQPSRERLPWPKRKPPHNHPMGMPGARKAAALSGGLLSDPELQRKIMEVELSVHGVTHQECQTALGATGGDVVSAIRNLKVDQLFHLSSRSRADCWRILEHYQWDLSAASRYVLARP

[2] = biological target: T2, FLAG-TNK1 (wild type) (human) (UniProt Q13470); test: affinity purification with mass spectrometry; direct co-IP of FLAG-TNK1 followed by LC-MS/MS
T2 sequence: T1 sequence

Row | binding [1] | binding [2] | Substance
1 | binds |  | 14-3-3 β (from UniProt P31946 1-246)
2 | binds | binds | 14-3-3 ε (from UniProt P62258 1-255)
3 | binds | binds | 14-3-3 ζ (endogenous) (human (endogenous in HEK-293T))
